Test results published in article PMC7615087.

Experiments:
Experiment in all cases: cross-linking; same BS3 cross-linking mass spectrometry sample as a6; cross-links within CCR4-NOT and between CCR4-NOT and CNOT4 when bound to stalled 80S ribosomes; both purified
[1] = biological target: human CNOT6 (subunit of recombinant CCR4-NOT) (human) (UniProt Q9ULM6)
[2] = biological target: human CNOT2 (subunit of recombinant CCR4-NOT) (human) (UniProt Q9NZN8)
[3] = biological target: human CNOT1 (subunit of recombinant CCR4-NOT) (human) (UniProt A5YKK6)
[4] = biological target: human CNOT9 (subunit of recombinant CCR4-NOT) (human) (UniProt Q92600)

Measured: binding

human CNOT3 (subunit of recombinant CCR4-NOT) (from UniProt O75175)
binds: all assays above

Results are given in words; binding and its absence hold for the method and conditions named. Binding can be weak; no strength is given.
